The values are deposited in ChEMBL (CHEMBL3988442, “University of Dundee, Small-Polar-MMV Screening Library” (2021)).

Values are the deposited “Percent Effect”, in %. The record does not define 0% and 100%; most values in the screen are far below 50% and negative numbers occur (in some assays of this library far below -100). The compounds are a random part of those screened. A dash means the value is not listed here; it may have been measured.

A: 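Assay on Mycobacterium tuberculosis, filed only as a heat shock assay from Cornell; the read-out is not stated. The concentration is filed as 10 mM, unlikely as a test dose, so the dose is not known. Higher reads as stronger inhibition (inferred: compounds with an IC50 in retests scored well above the rest). Of about 69,000 compounds tested this way, about 930 (1.4%) reached 50% or more in at least one test.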
B: 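Whole-cell assay for inhibitors of Mycobacterium tuberculosis growth, labelled Cornell in the record; the read-out is not stated. The concentration is filed as 10 mM, unlikely as a test dose, so the dose is not known. Higher means stronger inhibition (inferred from two other growth screens of the library). About 53,000 compounds were tested under these conditions; 1.7% (about 900) showed 50% or more at least once.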

SMILES | A | B
COC(=O)CCC(=O)NC1CCCc2cc(OC(F)F)ccc21 (centres undefined) | 7.062 | -29.64
Cl.c1nc(N2CCOCC2)ncc1-c1cncn1CCCN1CCCCC1 | -7.524 | 35.46
CCCn1ncc(CN(Cc2cccnc2)Cc2cccs2)c1C | -15.6 | 0.9595
COCCN1CC(C(=O)NCc2cccnc2-n2cccn2)CC1=O (centres undefined) | -10.07 | -
Cc1cc(-c2cc(F)ccc2C(=O)O)nc(C2CCCCN2C(C)C)n1 (centres undefined) | -14.69 | -61.58
CC(C)(C)c1noc(CCC(=O)N(CC2CCOC2)C2CC2)n1 (centres undefined) | 22.63 | -
CC(C)[C@H](N)c1nnc(SCC(=O)Nc2ccc(Br)cc2)o1.Cl | 2.642 | 19.09
CO[C@H]1CN(C)S(=O)(=O)[C@@]12CCN(Cc1ccccc1)C2 | -3.838 | 4.053
O=S(=O)(c1ccc(F)cc1)n1cc(Cl)cn1 | 9.563 | 10.92
COc1cccc(Nc2nc(C3CCNCC3)c3sc(C)c(C)n23)c1.Cl | 44.92 | 12.91
Oc1cc(CN2CCC(O)(Cn3ccnc3)CC2)nc2ccc(F)cc12 | 1.405 | -6.688
[H][C@@]12CCCO[C@]1([H])[C@H](N1CCN(C)CC1)CN2C(=O)c1ccnnc1 | 12.57 | -30.88
CCN1CCCC(O)(CNCc2ccccn2)C1 (centres undefined) | 7.046 | -
CCS(=O)(=O)NCC(=O)NC1(C)CCc2ccccc2C1 (centres undefined) | 0.6895 | -
COCCN1CCC(Cc2cncc(-c3ccc(C(=O)O)cc3)n2)CC1 | -18.12 | -29
CC(=O)NCCNC(=O)C1(Oc2cccnc2C)CCNCC1 | 6.623 | -
CC1CN(C(=O)NCc2cccc(C#N)c2)CCN1CC(F)(F)F (centres undefined) | 9.612 | -1.333
CC(=O)NC1CCc2ccc(S(=O)(=O)NCc3ncccc3C)cc21 (centres undefined) | 21.57 | -37.85
COc1ccc(OCCc2nnc(NC(C)=O)s2)cc1 | 5.815 | -
CCOc1ncccc1Cn1cc(-c2ccc(CO)o2)nn1 | 13.28 | 3.736
CCN(CC)C(=O)CCNC(=O)Cc1nc(-c2ccco2)oc1C | 10.32 | 2.041
CN(C)S(=O)(=O)c1ccc(CN2CCCC2c2ccc[nH]2)o1 (centres undefined) | 12.34 | -11.6
CC1CN(CC(=O)NCc2ccccc2)CCN1Cc1nccn1C (centres undefined) | -27.69 | -
Cc1cc(N(C)C)nc(C2CCNC2)n1.Cl.Cl (centres undefined) | -43.84 | -44.43
O=C1N(CCCc2ccccc2)CCCC12CCN(C(CO)CO)C2 (centres undefined) | -52.14 | 47.73
COc1ncccc1C(=O)NCC1Cc2ccccc2O1 (centres undefined) | -4.285 | 23.4
O=C(O)C(c1ccc2c(c1)OCCO2)N1CCCCCC1 (centres undefined) | -4.082 | 23.59
COc1ccccc1C(=O)N1CCN(C(=O)Cc2ccccn2)CC1 | -9.359 | 1.349
O=C(NCCC(=O)N1CCCc2ccccc21)c1c(F)cccc1F | 5.101 | -
CC(=O)N(Cc1ncc(C)o1)C1CCN(Cc2ccccc2F)C1 (centres undefined) | 15.87 | -
O=C(c1nc(=O)[nH][nH]1)N1CCCCCC1 | 1.976 | 9.942
CCOc1ccccc1NC(=O)NCCc1ccoc1 | 26.22 | 27.68
CCc1cnc(C)nc1NCCN1CCOCC1 | -30.23 | 20.06
COCCO[C@H]1CCN(Cc2cccs2)[C@H]1Cc1cccnc1.O=C(O)C(F)(F)F.O=C(O)C(F)(F)F | 4.666 | 10.88
c1nc2n(c1CN1CCCC1)CCN(C1CCOCC1)CC2 | -13.65 | 16.39
O=C(CCc1ccsc1)N1CCC(Nc2cccnn2)CC1 | 7.244 | -7.951
O=C(CC1CCCCC1)NC1CCCc2nc(N3CCOCC3)ncc21 (centres undefined) | 7.896 | 15.27
COCCN(Cc1cnn(C)c1)c1nc2c(s1)c(C)nn2C | 3.729 | -
Cc1csc(CN2CCC(C(=O)O)(n3ccc(-c4ccco4)n3)CC2)n1 | -10.73 | 7.059
Cn1cc(C2CC(=O)NC23CCN(C(=O)NC2CC2)CC3)cn1 (centres undefined) | 9.107 | 4.044
Cn1ccnc1C(=O)NCCS(=O)(=O)c1ccc(C(C)(C)C)cc1 | 2.619 | -
O=C1CCN(C(=O)c2ncoc2-c2ccco2)c2ncccc2N1 | -5.404 | -
Cc1ccc(C(=O)NCC(c2cnn(C)c2)N(C)C)c(O)c1 (centres undefined) | -18.82 | -35.43
Nc1nc(N)c2c(n1)OC1(CCCN(Cc3nccs3)CC1)C2 (centres undefined) | 7.887 | 1.558
C[C@@H]1CN(S(=O)(=O)N2CCCC2)C[C@@]1(O)C1CC1 | 3.868 | -22.2
CCOCC1CN(Cc2ccsc2)Cc2cnn(C)c21 (centres undefined) | -20.25 | -
O=C(NCc1ncc[nH]1)c1c(F)cccc1I | -10.95 | -31.32
Cc1nn(C)c(Cl)c1C(=O)NCc1cccnc1N1CCOCC1 | -4.785 | 1.001
O=C(CNc1cc(F)ccc1OCC1CCCO1)N1CCOCC1 (centres undefined) | -3.028 | -
NC(=O)c1csc(C(=O)N2CCCC(n3ccnc3)C2)c1 (centres undefined) | 2.244 | -
O=C(O)C(F)(F)F.O=C(O)C(F)(F)F.[H][C@@]12CCCO[C@]1([H])[C@H](OCc1ccncc1)CN2Cc1scnc1C | -15.79 | 15.52
COc1cccc(CCCn2cnnc2[S+](C)[O-])c1 (centres undefined) | 12.3 | 8.679
CC(C)CC(CNC(=O)NCc1cc[nH]n1)N1CCOCC1 (centres undefined) | 11.81 | -18.28
CNC(=O)c1cc2c(s1)CCN(C(=O)CCC1CCCN(C)C1)C2 (centres undefined) | 9.397 | -9.56
Cc1nc(C(=O)N2CCN(S(C)(=O)=O)CC2)c(-c2ccccc2Cl)s1 | -2.391 | -11.85
CC1CCc2n[nH]c(C(=O)N3CCc4c(nc(N(C)C)[nH]c4=O)C3)c2C1 (centres undefined) | 17.14 | -11.51
CO[C@@H]1CCN(S(=O)(=O)c2cccs2)[C@H]1Cc1ccccc1 | 1.945 | 44.21
CC(C)n1nc(Cn2cccc2)c2c1CN(Cc1ccoc1)C2.O=C(O)C(F)(F)F | 11.02 | 24.29
CC(C)OCCCN(Cc1cnn(C)c1)Cc1ccccn1.O=C(O)CC(O)(CC(=O)O)C(=O)O | -10.12 | -33.42
Cc1cc(C[C@@H]2CCC[C@H]2NCc2ccc(C(F)(F)F)cc2)on1.O=C(O)CC(O)(CC(=O)O)C(=O)O | 16.03 | -
CN(C)c1ccc(C2CCN(c3cnccn3)CC2)nc1 | -1.466 | 63.52
O=C(Cc1ccccc1Cl)NCCN1CCC(c2cccs2)CC1 | 11.38 | 18.24
Cc1cc(CN2CCC3(CC2)COC(COc2ccccn2)C3)no1 (centres undefined) | -25.86 | -9.911
COCCNc1cc(-c2cccc(C(=O)O)c2C)c2cc[nH]c2n1 | 3.079 | -3.973

6 of the entries, repeated:

| SMILES | A | B |
|---|---|---|
| `COCCNc1cc(-c2cccc(C(=O)O)c2C)c2cc[nH]c2n1` | 3.079 | -3.973 |
| `CCc1cnc(C)nc1NCCN1CCOCC1` | -30.23 | 20.06 |
| `COC(=O)CCC(=O)NC1CCCc2cc(OC(F)F)ccc21` (centres undefined) | 7.062 | -29.64 |
| `CC1CCc2n[nH]c(C(=O)N3CCc4c(nc(N(C)C)[nH]c4=O)C3)c2C1` (centres undefined) | 17.14 | -11.51 |
| `Cc1cc(N(C)C)nc(C2CCNC2)n1.Cl.Cl` (centres undefined) | -43.84 | -44.43 |
| `O=C(NCc1ncc[nH]1)c1c(F)cccc1I` | -10.95 | -31.32 |